PubChem BioAssay AID652259 | Drosophila RNAi Screening Center – 2013
The deposit covers about 22,000 reagents; below is an unselected part of those that have a named target and a result. Over the whole deposit, 233 (1.1%) are marked active. 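Light values are raw, unnormalised plate reads; the ratio scores behind the reporter calls were not deposited.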 Unmarked entries are inactive. Names joined by + are all predicted targets of the reagent. Not given: the amount of reagent, the time to read-out, the dose of the treatment.

- Purpose: 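Identify new Wingless signalling regulators in fly cells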 (primary screen)
- System: Drosophila clone 8 imaginal disc epithelial cells
- Reagent: long dsRNA against Drosophila genes
- Challenge: pathway stimulated by co-transfected Wingless expression plasmid
- Detection: 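Dual luciferase reads per well after Wingless plasmid stimulation: reporter firefly light and Renilla control light; activity is firefly divided by Renilla, a ratio not deposited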
- Direction: firefly reporter light: higher = more Wg reporter light, before normalisation; Renilla control light: higher = more transfected or surviving cells
- Active means: 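a knock-down is a candidate when at least two out of four statistical tests show it departing from its plate mean; one test alone signals a weak candidate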
- Meaning of the calls: active = candidate regulator (raises or lowers reporter); inactive = not a candidate

target gene | DRSC id | reporter change call, replicate 1 | firefly reporter light, replicate 1 | firefly reporter light, replicate 2 | Renilla control light, replicate 1 | Renilla control light, replicate 2
tsr | DRSC04718 | – | 2464 | 6778 | 864 | 3562
CG14757 | DRSC06492 | – | 3857 | 7190 | 632 | 2211
CG30274 | DRSC04171 | – | 2742 | 8237 | 793 | 2778
CG14088 | DRSC10092 | – | 16832 | – | 5548 | –
CG5180 | DRSC15731 | – | 17687 | – | 4264 | –
CG4781 | DRSC04488 | – | 2058 | 6682 | 658 | 1346
sax | DRSC07675 | – | 8981 | – | 3344 | –
Rab18 | DRSC18702 | – | 1222 | 3376 | 690 | 1504
H15 | DRSC03339 | – | 1914 | 5725 | 912 | 1024
H15 | DRSC22199 | – | 7.74e5 | 8.47e5 | 3.65e5 | 3.93e5
Cyp9b1 | DRSC07389 | – | 3030 | 5174 | 568 | 2393
CG14455 | DRSC11712 | – | 9344 | – | 3474 | –
Nelf-E | DRSC10567 | – | 2153 | 6241 | 1186 | 2985
RpS15Ab + RpS15Aa | DRSC06129 | – | 1987 | 4646 | 577 | 1996
RpS15Ab + RpS15Aa | DRSC19831 | – | 8664 | – | 5813 | –
phu | DRSC16390 | – | 12748 | – | 2245 | –
Spec2 (retired record) | DRSC12258 | – | 7302 | – | 2224 | –
Spec2 (retired record) | DRSC22886 | – | 5.95e5 | 4.79e5 | 2.18e5 | 508
Cds | DRSC10938 | – | 6375 | – | 2760 | –
CG2772 | DRSC00530 | – | 2304 | 6032 | 848 | 2352
Dora | DRSC19614 | – | 37808 | – | 6512 | –
Dora | DRSC19781 | – | 26769 | – | 1056 | –
Dora | DRSC20034 | – | 19139 | – | 10154 | –
Dora | DRSC20035 | – | 19799 | – | 5498 | –
CG9919 | DRSC20219 | – | 27389 | – | 13833 | –
Pdzd8 | DRSC19355 | – | 21537 | – | 10189 | –
zyd | DRSC20716 | – | 20881 | – | 10241 | –
Gyc88E | DRSC15547 | – | 17835 | – | 3584 | –
mip40 | DRSC06541 | – | 11785 | – | 5362 | –
CG6163 | DRSC10595 | – | 7958 | – | 3136 | –
ksr | DRSC12379 | – | 16339 | – | 3015 | –
ND6 (retired record) | DRSC21271 | – | 22403 | 7.22e5 | 14896 | 3.21e5
CG1791 | DRSC18141 | – | 2154 | 6107 | 541 | 1818
pkm | DRSC19674 | – | 3628 | 9336 | 1239 | 3857
trbd | DRSC16494 | – | 5175 | – | 2681 | –
ClC-b | DRSC07220 | – | 4252 | – | 1794 | –
Yp2 | DRSC18732 | – | 2551 | 4395 | 874 | 1808
Polr3B | DRSC07536 | – | 9049 | – | 2690 | –
AANATL5 | DRSC05994 | – | 6672 | – | 2460 | –
His3.3A | DRSC03343 | – | 2341 | 5016 | 162 | 352
CG43117 | DRSC13767 | – | 3024 | – | 1019 | –
CG31229 | DRSC13309 | – | 4432 | – | 1273 | –
CG5399 | DRSC15791 | – | 9493 | – | 3056 | –
mst | DRSC20582 | – | 7029 | – | 4892 | –
AGO3 | DRSC21386 | – | 2.91e5 | 2.80e5 | 1.47e5 | 1.01e5
CG31835 + CG42585 | DRSC01412 | – | 18908 | – | 11192 | –
Nup133 | DRSC16150 | – | 3478 | 3826 | 1363 | 1312
Desi | DRSC14909 | – | 19925 | – | 4823 | –
CG31706 | DRSC22704 | – | 4.28e5 | 4.49e5 | 1.89e5 | 1.43e5
CG10694 | DRSC14263 | – | 19127 | – | 13508 | –
SdhBL | DRSC20039 | – | 13312 | – | 8187 | –
Eig71Ef | DRSC11153 | – | 8539 | – | 4525 | –
Mat1 | DRSC07465 | – | 2984 | 7732 | 664 | 2536
CG14435 | DRSC17928 | – | 26652 | – | 7558 | –
CG43292 | DRSC08883 | – | 3402 | – | 840 | –
CG43292 | DRSC21542 | – | 7.48e5 | 7.58e5 | 3.58e5 | 3.23e5
sala + CG43355 | DRSC01188 | – | 21904 | 7.09e5 | 14427 | 2.64e5
sala + CG43355 | DRSC03605 | – | 2848 | 4550 | 935 | 3249
CG12111 | DRSC17808 | – | 22489 | – | 11905 | –
Or85a | DRSC16764 | – | 13984 | – | 3783 | –
CG8888 | DRSC07294 | – | 12928 | – | 4230 | –
CG8888 | DRSC07295 | Wg reporter activity lowered (active) | 5813 | – | 4464 | –
SMC6 | DRSC15829 | – | 26122 | – | 21712 | –
CG4186 | DRSC11753 | – | 14672 | – | 4869 | –
so | DRSC07693 | – | 18589 | – | 5077 | –
CG33796 | DRSC09417 | – | 3050 | – | 1969 | –
Ate1 | DRSC05925 | – | 22708 | – | 4603 | –
siz | DRSC11622 | – | 13093 | – | 4057 | –
siz | DRSC11689 | – | 21040 | – | 3755 | –
siz | DRSC11690 | – | 19147 | – | 5398 | –
CG43326 + CG43325 | DRSC04157 | – | 3466 | 5141 | 763 | 2272
Dop1R1 | DRSC13020 | – | 2996 | – | 1130 | –
Dop1R1 | DRSC13021 | – | 2673 | – | 812 | –
Dop1R1 | DRSC16652 | – | 14887 | – | 2343 | –
